Data: the supplement of paper PMC12819154, “High-throughput peptide-centric local stability assay extends protein–ligand identification to membrane proteins, tissues and bacteria” (Nature Structural & Molecular Biology, 2025)
The other results are listed elsewhere or left out. Most entries show no effect beyond the scatter of the controls.

Protein sequences, listed by entry. Tags and fused reporters are not part of them. Lines headed by an entry give the natural chain unless they say otherwise; changes in a name come on top.
UniProt Q9QXY1: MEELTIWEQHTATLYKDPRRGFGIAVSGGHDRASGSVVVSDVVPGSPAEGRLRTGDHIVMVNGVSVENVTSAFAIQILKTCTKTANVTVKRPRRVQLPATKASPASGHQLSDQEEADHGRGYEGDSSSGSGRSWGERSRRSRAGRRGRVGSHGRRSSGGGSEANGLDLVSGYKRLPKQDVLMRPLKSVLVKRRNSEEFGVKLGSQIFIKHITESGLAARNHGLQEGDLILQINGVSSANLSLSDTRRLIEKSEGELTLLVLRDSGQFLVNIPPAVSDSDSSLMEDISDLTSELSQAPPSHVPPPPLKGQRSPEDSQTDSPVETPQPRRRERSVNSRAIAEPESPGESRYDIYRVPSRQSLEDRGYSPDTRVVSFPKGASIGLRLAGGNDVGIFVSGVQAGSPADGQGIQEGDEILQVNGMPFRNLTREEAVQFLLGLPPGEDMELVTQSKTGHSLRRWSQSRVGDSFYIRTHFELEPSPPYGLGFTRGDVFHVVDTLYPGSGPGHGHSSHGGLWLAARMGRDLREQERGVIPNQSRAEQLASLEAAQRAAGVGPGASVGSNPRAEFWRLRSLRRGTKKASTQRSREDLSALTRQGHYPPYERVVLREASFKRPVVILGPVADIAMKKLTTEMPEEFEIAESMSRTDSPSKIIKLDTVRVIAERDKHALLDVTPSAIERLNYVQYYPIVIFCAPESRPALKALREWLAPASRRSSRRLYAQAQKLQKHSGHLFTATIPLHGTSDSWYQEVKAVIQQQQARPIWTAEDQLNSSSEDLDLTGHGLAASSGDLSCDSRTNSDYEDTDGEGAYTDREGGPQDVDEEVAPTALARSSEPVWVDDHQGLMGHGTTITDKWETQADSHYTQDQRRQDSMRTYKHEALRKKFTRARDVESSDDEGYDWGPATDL
UniProt Q9QXK3: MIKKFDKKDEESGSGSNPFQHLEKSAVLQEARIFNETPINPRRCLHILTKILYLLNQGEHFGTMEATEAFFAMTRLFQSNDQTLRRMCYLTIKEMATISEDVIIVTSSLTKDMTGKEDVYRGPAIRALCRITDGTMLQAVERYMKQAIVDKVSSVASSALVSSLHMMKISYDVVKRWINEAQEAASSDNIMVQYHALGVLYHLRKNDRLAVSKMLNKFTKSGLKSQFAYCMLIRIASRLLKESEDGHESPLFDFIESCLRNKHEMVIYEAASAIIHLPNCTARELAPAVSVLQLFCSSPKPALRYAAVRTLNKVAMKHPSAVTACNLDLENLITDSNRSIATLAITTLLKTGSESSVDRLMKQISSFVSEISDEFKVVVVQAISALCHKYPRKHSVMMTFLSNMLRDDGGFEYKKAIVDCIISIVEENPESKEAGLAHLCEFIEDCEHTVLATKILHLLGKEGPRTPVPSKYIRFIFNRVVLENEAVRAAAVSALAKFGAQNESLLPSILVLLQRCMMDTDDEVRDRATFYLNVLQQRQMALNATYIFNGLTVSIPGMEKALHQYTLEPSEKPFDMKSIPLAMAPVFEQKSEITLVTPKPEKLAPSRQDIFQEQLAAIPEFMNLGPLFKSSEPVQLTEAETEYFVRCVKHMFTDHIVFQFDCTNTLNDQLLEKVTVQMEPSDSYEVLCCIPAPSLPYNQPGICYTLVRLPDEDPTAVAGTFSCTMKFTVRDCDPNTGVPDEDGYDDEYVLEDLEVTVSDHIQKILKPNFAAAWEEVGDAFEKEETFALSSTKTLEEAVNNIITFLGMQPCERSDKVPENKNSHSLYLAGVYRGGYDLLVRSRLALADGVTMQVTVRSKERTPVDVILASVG
UniProt Q9QY01: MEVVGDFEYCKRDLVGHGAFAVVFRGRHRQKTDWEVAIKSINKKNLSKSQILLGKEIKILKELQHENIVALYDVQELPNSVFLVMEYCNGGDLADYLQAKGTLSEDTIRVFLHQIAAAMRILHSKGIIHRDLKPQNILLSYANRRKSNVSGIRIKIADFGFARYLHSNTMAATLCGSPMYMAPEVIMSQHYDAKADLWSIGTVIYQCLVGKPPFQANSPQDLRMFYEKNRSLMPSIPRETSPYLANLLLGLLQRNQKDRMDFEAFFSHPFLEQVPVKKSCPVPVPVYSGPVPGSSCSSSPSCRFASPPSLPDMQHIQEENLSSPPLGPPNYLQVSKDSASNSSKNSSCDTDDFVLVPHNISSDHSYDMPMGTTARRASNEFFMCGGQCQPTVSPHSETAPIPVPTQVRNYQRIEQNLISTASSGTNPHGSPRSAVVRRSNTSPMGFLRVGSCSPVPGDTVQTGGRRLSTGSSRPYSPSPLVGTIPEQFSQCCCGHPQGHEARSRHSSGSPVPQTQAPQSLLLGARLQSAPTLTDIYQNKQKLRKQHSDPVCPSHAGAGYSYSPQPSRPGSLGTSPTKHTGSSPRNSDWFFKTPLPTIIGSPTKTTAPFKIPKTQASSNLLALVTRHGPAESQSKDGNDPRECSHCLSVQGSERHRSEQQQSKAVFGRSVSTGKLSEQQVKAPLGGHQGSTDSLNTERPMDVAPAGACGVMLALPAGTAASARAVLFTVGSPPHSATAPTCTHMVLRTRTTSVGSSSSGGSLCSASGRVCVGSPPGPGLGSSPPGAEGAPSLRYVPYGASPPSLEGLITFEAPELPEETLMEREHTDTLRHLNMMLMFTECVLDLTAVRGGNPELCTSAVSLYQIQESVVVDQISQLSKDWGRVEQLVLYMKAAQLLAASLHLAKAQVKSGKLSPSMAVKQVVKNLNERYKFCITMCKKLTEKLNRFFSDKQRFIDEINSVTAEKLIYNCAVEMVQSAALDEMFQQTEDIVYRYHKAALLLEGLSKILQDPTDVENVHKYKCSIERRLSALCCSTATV
UniProt Q9QY15: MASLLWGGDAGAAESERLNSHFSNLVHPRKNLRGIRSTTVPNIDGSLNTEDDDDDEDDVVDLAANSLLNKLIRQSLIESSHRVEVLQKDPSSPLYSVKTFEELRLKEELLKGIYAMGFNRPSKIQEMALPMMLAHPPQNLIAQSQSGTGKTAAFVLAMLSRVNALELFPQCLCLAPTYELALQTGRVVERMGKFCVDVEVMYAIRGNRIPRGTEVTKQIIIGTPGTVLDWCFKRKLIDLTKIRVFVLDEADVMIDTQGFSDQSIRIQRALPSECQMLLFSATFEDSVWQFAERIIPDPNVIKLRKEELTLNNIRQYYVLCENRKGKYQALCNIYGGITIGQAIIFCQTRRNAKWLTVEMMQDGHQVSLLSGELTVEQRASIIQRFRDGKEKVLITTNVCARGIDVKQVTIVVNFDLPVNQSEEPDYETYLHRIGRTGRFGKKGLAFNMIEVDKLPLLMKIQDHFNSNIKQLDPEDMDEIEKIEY
UniProt Q9WTK5: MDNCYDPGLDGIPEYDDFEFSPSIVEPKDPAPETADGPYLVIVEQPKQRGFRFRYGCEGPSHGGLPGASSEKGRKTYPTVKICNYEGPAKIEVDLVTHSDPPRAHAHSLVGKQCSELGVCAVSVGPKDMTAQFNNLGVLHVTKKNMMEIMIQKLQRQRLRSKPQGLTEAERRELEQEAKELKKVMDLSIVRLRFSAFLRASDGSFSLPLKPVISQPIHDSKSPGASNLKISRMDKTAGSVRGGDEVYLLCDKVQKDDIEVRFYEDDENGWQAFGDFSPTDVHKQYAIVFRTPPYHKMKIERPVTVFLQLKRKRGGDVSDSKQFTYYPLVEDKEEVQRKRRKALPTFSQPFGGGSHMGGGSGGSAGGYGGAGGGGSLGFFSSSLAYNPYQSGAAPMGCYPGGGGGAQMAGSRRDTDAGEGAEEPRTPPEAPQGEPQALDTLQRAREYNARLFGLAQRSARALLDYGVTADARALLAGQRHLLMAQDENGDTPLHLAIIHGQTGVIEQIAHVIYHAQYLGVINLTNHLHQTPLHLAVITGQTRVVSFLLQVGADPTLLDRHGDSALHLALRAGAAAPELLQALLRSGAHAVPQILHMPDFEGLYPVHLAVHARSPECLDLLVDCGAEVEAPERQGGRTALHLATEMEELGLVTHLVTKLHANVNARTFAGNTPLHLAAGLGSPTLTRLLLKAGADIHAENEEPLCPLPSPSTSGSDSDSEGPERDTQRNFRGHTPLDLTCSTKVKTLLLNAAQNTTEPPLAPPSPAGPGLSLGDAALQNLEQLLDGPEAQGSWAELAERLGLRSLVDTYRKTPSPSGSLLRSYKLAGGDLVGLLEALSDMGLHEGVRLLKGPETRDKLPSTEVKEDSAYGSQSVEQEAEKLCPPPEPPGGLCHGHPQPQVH
UniProt Q9WUU8: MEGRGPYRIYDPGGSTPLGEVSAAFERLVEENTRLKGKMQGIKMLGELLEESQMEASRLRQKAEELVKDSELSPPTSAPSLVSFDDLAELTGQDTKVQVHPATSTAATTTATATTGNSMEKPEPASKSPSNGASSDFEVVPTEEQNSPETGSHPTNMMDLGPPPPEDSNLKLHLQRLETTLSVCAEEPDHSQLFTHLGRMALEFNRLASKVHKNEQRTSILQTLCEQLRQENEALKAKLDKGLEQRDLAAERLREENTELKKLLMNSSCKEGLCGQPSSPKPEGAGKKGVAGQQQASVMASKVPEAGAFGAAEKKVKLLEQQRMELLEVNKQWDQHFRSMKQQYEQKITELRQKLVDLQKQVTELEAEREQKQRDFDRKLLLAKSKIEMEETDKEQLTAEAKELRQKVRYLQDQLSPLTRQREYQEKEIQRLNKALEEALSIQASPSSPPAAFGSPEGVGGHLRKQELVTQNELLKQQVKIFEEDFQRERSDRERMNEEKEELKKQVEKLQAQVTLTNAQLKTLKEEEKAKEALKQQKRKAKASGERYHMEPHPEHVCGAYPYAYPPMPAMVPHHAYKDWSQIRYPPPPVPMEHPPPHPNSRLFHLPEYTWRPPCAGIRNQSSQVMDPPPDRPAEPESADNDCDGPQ
UniProt Q9WVA2: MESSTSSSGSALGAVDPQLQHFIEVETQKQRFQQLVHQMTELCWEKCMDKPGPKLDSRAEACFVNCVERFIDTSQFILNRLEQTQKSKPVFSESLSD
UniProt Q9QYB5: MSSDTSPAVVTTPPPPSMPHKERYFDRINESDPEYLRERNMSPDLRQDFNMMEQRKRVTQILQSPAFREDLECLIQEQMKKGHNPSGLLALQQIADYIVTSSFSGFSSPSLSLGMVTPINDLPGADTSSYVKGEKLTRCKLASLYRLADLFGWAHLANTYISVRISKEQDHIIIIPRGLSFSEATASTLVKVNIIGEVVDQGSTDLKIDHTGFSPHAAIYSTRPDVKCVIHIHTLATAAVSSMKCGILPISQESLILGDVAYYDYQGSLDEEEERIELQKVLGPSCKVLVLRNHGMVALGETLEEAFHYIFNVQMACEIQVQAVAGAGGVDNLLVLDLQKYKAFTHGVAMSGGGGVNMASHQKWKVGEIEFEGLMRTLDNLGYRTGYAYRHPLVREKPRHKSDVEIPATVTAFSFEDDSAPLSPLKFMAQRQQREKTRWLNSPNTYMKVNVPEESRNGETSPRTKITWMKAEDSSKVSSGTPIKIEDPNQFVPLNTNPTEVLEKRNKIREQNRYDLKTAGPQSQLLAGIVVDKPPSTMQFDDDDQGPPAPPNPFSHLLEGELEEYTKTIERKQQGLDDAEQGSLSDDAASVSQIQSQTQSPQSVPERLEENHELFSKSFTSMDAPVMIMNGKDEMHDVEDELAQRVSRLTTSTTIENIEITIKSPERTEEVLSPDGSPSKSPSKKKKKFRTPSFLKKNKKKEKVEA
UniProt Q9WUA3: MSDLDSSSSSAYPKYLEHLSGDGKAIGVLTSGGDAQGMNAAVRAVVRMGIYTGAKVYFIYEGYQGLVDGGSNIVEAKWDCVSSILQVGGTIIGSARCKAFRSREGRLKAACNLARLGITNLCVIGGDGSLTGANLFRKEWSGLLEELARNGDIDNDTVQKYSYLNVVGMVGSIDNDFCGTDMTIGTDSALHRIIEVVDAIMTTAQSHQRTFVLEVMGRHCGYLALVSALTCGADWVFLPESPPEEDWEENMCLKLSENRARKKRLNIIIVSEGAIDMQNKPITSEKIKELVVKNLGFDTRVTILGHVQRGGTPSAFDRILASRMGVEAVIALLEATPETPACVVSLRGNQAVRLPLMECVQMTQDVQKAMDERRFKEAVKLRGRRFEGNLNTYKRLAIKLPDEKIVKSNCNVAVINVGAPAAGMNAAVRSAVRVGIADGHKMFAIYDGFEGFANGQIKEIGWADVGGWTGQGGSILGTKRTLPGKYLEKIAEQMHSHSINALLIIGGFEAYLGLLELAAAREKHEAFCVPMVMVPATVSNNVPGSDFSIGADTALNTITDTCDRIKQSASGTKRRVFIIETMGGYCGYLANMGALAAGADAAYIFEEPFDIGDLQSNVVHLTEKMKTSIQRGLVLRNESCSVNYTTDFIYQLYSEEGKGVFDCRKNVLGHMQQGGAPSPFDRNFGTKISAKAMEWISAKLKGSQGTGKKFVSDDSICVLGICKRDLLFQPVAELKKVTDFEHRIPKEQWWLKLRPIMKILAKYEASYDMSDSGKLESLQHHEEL

The targets below were run with CN[C@@H]1C[C@H]2O[C@@](C)([C@@H]1OC)n1c3ccccc3c3c4c(c5c6ccccc6n2c5c31)C(=O)NC4 [staurosporine] (assay: log2 fold change of tryptic peptide abundance, ligand vs vehicle (limited proteolysis) (log2 ratio); higher = more trypsin-susceptible (destabilized)). Conditions: ligand concentration: 20 uM; sample: mouse liver crude lysate; replicate design: treated separately.

Target | log2 fold change
UniProt Q9QXY1 (peptide sequence: AIAEPESPGESR, peptide start residue: 337) | 0.112
UniProt Q9R0M8 (peptide sequence: GDLTTEPFLPK, peptide start residue: 375) | -0.0662
UniProt Q9WTX8 (peptide sequence: LHEENTHLR, peptide start residue: 262) | -0.308
UniProt Q9WTR1 (peptide sequence: NSASEEDHLPLQVLQSH, peptide start residue: 740) | -0.0387
UniProt Q9R0N0 (peptide sequence: AAWRPPRVEELLAEAR, peptide start residue: 2) | -0.273
UniProt Q9QXM1 (peptide sequence: GRSEAAASATAALR, peptide start residue: 80) | 0.818
UniProt Q9QZ08 (peptide sequence: HSSALGGASLGAR, peptide start residue: 309) | 0.705
UniProt Q9R1P4 (peptide sequence: HMSEFMECNLDELVK, peptide start residue: 175) | 0.248
UniProt Q9R1K9 (peptide sequence: MSPKPELTEDQKQEIR, peptide start residue: 19) | 0.176
UniProt Q9R1T2 (peptide sequence: KVLFCPVK, peptide start residue: 214) | 0.217
UniProt Q9QXE2 (peptide sequence: VMEILESGHLR, peptide start residue: 311) | 0.394
UniProt Q9QXT5 (peptide sequence: LQLVLAPLHSLASR, peptide start residue: 216) | -0.176
UniProt Q9QXK3 (peptide sequence: LFQSNDQTLR, peptide start residue: 76) | -0.375
UniProt Q9QY01 (peptide sequence: SLMPSIPR, peptide start residue: 231) | -0.615
UniProt Q9QZD9 (peptide sequence: GHFGPINSVAFHPDGK, peptide start residue: 283) | 0.342
UniProt Q9QXG9 (peptide sequence: LGPHQPASLEHPEHLAGHR, peptide start residue: 226) | -0.407
UniProt Q9QZ88 (peptide sequence: TLAGDVHIVR, peptide start residue: 51) | 0.0185
UniProt Q9QY15 (peptide sequence: DPSSPLYSVK, peptide start residue: 82) | 0.135
UniProt Q9R112 (peptide sequence: RSPVADSAGWVDVDKETLQHK, peptide start residue: 306) | -0.145
UniProt Q9WTK5 (peptide sequence: LLKGPETR, peptide start residue: 846) | -0.18

Quoted from the listing (2 entries):
Target | log2 fold change
UniProt Q9QZ08 (peptide sequence: HSSALGGASLGAR, peptide start residue: 309) | 0.705
UniProt Q9R1P4 (peptide sequence: HMSEFMECNLDELVK, peptide start residue: 175) | 0.248

(listing goes on)

Target | log2 fold change
UniProt Q9QYL7 (peptide sequence: VKAGELVEQQK, peptide start residue: 2) | -0.23
UniProt Q9WUU8 (peptide sequence: LREENTELKK, peptide start residue: 253) | -0.321
UniProt Q9R087 (peptide sequence: VTAGTSNEEECWNGHSK, peptide start residue: 412) | -0.14
UniProt Q9WV92 (peptide sequence: SLDGASVSENHEIYMK, peptide start residue: 451) | 0.366
UniProt Q9QXT0 (peptide sequence: TDLCDHALHR, peptide start residue: 168) | 0.0901
UniProt Q9R0H2 (peptide sequence: TISHESGEHSAQGK, peptide start residue: 245) | -0.185
UniProt Q9WTI7 (peptide sequence: KWAAQTIR, peptide start residue: 781) | 0.44
UniProt Q9WVA2 (peptide sequence: FIDTSQFILNR, peptide start residue: 70) | -0.0799
UniProt Q9R0Q3 (peptide sequence: HEQEYMEVR, peptide start residue: 146) | -0.686
UniProt Q9R092 (peptide sequence: KVWEAAPEHIK, peptide start residue: 225) | -0.652
UniProt Q9WTY1 (peptide sequence: AAADGVLAEVR, peptide start residue: 293) | 0.116
UniProt Q9R1P1 (peptide sequence: LNLYELK, peptide start residue: 71) | -0.143
UniProt Q9QZ06 (peptide sequence: LSITVVQAK, peptide start residue: 55) | -0.354
UniProt Q9R182 (peptide sequence: ILANGLLQLGHGLK, peptide start residue: 45) | 0.253
UniProt Q9QYC0 (peptide sequence: GSEENLDETR, peptide start residue: 585) | 0.0966
UniProt Q9QZB7 (peptide sequence: EYYNQTGR, peptide start residue: 376) | -0.403
UniProt Q9QYB5 (peptide sequence: SPERTEEVLSPDGSPSK, peptide start residue: 664) | -0.506
UniProt Q9QXL1 (peptide sequence: LQMELMEYK, peptide start residue: 396) | -0.12
UniProt Q9WUA3 (peptide sequence: LAIKLPDEK, peptide start residue: 396) | 0.478
UniProt Q9WTL8 (peptide sequence: EAHSQIEK, peptide start residue: 82) | 0.437
